The results in this text go back to article PMC2931529.

Results are given in words; binding and its absence hold for the method and conditions named. Some binding calls cover weakened binding; strength is not graded here.

The target in the experiment is T1, signal transducer and activator of transcription 1, tyrosine-phosphorylated (pY701) (human (endogenous in LX-2)), P42224.
T1 chain: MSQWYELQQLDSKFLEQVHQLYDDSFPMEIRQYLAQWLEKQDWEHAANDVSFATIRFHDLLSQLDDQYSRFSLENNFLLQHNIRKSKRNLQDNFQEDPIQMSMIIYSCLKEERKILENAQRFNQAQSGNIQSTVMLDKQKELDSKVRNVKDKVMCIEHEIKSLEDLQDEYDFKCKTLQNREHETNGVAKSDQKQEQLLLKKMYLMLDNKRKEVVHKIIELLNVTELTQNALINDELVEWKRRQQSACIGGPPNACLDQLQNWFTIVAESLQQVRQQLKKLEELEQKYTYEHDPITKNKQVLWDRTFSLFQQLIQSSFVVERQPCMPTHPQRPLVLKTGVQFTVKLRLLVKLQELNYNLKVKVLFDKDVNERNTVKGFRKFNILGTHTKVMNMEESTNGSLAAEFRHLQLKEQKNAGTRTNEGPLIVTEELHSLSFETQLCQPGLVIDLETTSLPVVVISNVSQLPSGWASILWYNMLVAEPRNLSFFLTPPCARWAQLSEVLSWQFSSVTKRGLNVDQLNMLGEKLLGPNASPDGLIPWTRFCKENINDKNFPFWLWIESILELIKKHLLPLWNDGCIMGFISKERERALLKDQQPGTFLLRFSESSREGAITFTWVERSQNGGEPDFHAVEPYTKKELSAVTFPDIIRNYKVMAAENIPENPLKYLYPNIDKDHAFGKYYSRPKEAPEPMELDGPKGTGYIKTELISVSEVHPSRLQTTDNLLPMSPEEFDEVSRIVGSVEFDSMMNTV
The experiment can be described thus: native gel or EMSA; nuclear extracts (detergent-free) of LX-2 cells stimulated with 30 ng/mL IL-27, IL-6 (with soluble IL-6 receptor) or IFNγ for the times indicated; DNA-bound STAT dimer species seen by autoradiography/phosphorimager. The conditions noted are these: remark: other sources report otherwise.

B1: signal transducer and activator of transcription 1, tyrosine-phosphorylated (pY701), P42224 1-750 (protein)
chain: T1 chain
modifications: here or on the partner: phosphotyrosine at 701 (pY701); phosphotyrosine at 701 (pY701)
For the molecule B1, the binding entry is “binds”.
